According to paper PMC3829939:
No constants are given. Whether binding was seen depends on the method and setting. In cells and extracts the contact can be indirect. Some binding calls cover weakened binding; strength is not graded here.

Amino acid sequences for entries named in this document (tags omitted).
UniProt Q15717: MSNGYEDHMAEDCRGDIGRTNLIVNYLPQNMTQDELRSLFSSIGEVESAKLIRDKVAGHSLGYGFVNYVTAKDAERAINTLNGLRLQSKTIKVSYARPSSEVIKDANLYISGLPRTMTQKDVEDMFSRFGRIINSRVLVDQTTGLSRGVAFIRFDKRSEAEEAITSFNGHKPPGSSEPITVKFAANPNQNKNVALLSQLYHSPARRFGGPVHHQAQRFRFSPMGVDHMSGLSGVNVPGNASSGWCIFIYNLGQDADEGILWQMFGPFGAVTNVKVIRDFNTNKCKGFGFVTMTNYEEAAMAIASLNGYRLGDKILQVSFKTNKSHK
UniProt P35222: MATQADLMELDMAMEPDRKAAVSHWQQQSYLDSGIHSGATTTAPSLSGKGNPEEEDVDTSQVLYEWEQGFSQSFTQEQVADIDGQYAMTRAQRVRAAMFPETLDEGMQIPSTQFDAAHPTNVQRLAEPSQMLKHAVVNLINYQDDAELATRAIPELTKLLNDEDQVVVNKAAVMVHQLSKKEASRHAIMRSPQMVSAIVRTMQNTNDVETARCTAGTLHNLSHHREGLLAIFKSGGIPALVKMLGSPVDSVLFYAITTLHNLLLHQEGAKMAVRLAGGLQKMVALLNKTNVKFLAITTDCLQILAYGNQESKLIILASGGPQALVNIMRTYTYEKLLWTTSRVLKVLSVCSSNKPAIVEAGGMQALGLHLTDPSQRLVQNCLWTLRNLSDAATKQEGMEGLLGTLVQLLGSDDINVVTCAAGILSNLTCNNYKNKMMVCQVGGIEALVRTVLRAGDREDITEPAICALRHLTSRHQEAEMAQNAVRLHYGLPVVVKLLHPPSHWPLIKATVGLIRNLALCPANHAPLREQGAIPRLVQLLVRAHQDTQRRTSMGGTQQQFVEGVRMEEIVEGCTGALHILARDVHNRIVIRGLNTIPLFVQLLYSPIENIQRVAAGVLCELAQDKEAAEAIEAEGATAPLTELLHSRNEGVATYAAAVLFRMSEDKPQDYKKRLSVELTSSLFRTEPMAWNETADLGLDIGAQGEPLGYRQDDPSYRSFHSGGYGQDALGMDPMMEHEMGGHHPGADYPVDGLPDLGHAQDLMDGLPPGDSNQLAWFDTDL

Biological target: HuR (human (endogenous in MCF7, MCF7-MS and MDA-MB-231)) (UniProt Q15717)
Experiment: co-IP; HuR immunoprecipitates blotted for beta-catenin; MCF7, MCF7-MS and MDA-MB-231 cells; CO-IP buffer (50mM tris-HCl pH 7.5, 150 mM NaCl, 5mM EDTA, 1% NP40) with protease inhibitors

Question: With “beta-catenin (from UniProt P35222 1-781)” as the substance, how does the binding read?
Answer: binds
